Assay results published in the supplement of paper PMC6411743.
± gives the standard deviation of the averaged measurements. The entries are a selection whose mix differs from that of the whole data set.

By UniProt entry, the sequences of proteins in these tests, tags left out. Where a name states a change or a piece, a line headed by the entry shows the natural chain unless it says otherwise.
UniProt O75386: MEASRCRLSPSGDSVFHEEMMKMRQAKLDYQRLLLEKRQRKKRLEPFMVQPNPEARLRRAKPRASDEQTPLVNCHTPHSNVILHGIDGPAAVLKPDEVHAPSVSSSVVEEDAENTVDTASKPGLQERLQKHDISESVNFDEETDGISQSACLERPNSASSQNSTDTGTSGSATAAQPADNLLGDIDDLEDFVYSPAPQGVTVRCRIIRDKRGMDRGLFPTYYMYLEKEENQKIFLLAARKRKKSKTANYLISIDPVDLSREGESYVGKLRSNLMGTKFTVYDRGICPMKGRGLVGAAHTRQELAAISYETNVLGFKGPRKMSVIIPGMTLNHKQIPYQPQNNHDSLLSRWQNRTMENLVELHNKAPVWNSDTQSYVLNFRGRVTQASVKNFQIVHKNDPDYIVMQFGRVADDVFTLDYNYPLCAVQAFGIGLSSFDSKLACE
UniProt Q14242: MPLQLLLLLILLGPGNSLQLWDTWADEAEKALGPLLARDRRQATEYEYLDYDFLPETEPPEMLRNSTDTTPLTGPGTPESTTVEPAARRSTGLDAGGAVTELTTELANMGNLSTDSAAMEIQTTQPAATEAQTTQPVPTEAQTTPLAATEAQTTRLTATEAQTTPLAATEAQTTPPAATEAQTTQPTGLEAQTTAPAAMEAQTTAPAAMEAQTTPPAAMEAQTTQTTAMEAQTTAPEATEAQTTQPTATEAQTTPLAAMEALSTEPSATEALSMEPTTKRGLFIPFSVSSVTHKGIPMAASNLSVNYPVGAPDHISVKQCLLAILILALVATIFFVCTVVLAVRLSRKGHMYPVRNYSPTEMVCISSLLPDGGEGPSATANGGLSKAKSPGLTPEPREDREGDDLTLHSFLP
UniProt P09234, whole entry: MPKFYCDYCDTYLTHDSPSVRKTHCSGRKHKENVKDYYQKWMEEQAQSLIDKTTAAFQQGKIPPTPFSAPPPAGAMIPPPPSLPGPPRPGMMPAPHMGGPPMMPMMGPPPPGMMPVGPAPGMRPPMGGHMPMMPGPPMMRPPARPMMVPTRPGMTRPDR
UniProt Q02833: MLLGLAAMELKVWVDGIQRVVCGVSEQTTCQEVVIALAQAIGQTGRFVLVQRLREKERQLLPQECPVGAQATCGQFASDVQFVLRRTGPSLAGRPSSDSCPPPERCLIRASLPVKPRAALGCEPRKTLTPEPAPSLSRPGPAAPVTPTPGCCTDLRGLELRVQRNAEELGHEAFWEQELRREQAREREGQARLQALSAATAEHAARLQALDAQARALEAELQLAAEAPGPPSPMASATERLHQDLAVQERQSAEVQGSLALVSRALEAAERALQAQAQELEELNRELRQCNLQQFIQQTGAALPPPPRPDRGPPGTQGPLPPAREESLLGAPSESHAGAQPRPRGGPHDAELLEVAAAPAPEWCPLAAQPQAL
UniProt Q9Y4K4: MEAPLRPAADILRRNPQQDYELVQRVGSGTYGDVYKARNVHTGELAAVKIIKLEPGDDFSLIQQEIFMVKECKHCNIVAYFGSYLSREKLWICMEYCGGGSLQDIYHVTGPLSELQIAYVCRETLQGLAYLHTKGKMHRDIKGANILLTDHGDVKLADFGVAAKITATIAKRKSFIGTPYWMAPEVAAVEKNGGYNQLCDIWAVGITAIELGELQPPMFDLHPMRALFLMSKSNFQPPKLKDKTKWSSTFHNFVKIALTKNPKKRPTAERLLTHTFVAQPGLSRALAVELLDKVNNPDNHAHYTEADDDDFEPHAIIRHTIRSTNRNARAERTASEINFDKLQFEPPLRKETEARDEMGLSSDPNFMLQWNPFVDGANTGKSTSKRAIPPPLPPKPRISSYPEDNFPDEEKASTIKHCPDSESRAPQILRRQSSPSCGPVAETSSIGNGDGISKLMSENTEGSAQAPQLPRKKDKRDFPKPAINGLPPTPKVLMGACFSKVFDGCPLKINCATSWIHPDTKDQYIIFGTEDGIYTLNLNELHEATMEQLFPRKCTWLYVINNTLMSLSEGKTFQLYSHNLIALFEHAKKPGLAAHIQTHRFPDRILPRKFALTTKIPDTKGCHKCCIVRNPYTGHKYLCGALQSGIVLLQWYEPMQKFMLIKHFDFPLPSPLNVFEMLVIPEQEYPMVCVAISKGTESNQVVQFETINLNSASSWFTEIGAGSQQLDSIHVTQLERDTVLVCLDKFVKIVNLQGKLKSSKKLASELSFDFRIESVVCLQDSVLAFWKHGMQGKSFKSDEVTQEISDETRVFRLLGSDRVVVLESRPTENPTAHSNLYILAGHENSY
UniProt Q8NFP9, whole entry: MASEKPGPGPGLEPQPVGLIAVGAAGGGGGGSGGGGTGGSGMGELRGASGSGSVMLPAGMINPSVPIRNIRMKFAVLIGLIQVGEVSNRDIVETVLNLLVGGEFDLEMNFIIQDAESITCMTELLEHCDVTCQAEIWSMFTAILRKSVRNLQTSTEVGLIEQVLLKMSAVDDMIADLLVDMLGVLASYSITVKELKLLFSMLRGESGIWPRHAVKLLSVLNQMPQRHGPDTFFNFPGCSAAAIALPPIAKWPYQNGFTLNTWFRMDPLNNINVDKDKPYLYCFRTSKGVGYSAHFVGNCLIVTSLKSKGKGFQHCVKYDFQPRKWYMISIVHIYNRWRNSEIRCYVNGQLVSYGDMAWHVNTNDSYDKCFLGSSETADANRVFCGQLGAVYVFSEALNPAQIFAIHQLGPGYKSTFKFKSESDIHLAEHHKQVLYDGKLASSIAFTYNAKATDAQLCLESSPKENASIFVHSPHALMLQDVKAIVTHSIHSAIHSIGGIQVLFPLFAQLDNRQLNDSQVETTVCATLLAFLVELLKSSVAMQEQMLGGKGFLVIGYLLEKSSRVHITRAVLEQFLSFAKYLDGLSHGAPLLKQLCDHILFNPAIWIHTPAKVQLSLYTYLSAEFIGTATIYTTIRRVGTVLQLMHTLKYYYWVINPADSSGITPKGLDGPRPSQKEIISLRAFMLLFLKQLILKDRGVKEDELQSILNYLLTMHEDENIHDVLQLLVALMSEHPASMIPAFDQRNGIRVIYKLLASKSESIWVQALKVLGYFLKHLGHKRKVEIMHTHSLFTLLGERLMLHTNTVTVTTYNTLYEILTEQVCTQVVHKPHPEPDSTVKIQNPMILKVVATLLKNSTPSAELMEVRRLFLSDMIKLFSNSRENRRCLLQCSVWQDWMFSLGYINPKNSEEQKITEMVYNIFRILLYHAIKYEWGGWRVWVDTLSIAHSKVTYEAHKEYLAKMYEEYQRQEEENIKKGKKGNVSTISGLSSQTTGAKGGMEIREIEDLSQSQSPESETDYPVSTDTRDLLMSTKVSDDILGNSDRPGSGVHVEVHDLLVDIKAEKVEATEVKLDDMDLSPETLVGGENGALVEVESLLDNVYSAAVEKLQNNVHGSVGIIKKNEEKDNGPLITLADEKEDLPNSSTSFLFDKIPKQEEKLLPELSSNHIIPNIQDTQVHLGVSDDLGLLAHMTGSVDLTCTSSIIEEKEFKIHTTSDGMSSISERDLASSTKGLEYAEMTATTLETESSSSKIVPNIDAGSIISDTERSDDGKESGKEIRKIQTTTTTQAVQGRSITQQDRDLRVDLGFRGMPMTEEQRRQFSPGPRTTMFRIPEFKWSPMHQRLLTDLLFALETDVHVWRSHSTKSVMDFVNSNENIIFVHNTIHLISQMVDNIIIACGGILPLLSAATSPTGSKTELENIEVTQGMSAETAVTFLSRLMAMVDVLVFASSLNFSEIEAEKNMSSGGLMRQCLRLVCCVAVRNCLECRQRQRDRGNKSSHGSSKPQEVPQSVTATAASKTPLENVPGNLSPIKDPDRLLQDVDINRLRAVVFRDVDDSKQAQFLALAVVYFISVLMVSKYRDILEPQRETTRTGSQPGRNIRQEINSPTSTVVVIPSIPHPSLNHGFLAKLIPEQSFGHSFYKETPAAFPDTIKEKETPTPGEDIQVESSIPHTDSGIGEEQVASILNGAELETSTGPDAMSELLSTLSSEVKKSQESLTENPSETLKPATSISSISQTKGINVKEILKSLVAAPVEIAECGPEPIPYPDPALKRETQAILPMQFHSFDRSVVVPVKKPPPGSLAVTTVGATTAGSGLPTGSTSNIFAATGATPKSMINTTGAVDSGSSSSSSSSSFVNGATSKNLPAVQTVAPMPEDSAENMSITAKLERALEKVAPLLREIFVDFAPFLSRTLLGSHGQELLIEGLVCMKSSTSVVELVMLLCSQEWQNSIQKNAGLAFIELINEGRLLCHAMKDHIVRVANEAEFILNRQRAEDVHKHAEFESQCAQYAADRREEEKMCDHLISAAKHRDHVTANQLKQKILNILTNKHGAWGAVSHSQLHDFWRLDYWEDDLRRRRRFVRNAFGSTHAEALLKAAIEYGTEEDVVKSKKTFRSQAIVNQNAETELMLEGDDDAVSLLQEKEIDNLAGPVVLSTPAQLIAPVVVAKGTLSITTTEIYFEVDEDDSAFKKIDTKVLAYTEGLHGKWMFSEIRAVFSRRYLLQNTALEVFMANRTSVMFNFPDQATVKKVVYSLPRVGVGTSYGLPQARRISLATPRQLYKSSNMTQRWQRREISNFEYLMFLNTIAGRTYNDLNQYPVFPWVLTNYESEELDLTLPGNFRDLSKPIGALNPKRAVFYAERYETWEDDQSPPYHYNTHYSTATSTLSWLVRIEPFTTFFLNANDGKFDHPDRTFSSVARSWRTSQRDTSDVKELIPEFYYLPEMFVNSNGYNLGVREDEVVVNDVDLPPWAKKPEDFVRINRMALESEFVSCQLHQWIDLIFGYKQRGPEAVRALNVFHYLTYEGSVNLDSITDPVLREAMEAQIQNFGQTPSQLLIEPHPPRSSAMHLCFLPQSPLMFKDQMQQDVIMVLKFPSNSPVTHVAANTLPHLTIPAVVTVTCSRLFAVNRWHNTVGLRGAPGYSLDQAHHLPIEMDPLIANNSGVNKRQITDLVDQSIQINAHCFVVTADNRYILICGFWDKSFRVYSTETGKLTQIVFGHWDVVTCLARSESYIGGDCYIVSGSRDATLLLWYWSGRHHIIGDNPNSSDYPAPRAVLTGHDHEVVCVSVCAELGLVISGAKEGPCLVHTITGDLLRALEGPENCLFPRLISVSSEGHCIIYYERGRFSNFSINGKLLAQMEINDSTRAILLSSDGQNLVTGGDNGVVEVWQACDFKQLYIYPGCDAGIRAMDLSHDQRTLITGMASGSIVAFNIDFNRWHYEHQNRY
UniProt Q8N2M8: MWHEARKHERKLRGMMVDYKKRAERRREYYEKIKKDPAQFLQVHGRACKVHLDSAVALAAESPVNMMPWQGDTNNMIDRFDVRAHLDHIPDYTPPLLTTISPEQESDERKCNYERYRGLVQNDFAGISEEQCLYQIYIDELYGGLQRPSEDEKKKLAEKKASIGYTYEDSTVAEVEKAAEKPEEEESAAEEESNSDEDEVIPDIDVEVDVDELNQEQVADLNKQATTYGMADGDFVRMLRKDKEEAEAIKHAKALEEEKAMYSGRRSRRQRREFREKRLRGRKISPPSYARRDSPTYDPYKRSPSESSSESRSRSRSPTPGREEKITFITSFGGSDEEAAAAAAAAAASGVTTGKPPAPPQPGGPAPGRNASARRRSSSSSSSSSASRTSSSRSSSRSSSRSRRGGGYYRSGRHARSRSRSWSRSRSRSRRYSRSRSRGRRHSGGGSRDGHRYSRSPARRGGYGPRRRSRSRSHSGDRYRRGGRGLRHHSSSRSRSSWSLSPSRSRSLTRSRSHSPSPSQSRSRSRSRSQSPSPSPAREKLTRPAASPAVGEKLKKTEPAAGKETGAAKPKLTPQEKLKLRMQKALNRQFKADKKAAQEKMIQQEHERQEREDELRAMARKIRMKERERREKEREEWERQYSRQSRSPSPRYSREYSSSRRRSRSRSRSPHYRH
UniProt P39656: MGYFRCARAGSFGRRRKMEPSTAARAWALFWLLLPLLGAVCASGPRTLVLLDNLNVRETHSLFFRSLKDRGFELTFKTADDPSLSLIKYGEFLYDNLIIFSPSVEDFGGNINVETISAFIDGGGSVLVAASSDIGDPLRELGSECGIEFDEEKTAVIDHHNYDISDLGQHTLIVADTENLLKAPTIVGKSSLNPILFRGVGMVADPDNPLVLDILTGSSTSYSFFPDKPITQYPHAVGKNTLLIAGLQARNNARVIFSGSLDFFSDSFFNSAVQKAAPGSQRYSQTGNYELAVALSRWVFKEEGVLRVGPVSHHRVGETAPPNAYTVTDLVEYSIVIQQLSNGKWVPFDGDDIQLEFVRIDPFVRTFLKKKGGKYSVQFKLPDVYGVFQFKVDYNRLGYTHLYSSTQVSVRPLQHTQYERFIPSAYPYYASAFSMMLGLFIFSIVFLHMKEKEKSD
UniProt Q5XKP0: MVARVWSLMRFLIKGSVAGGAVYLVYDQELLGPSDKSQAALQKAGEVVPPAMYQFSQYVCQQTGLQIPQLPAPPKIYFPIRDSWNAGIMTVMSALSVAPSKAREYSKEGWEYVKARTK

Compound: Nc1ncnc2c1ncn2[C@@H]1O[C@H](COP(=O)(O)OP(=O)(O)NP(=O)(O)O)[C@@H](O)[C@H]1O [adenylyl imidodiphosphate]
Assay: NP40-soluble protein abundance relative to vehicle (solubility fold change) (ratio); higher = more soluble protein in presence of AMP-PNP
Procedure, shortened: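 Jurkat crude lysate (Dounce-homogenised) was treated with eight concentrations from 0.1 to 10 mM for 10 min at room temperature, then 3 min at 37 °C. It was solubilised with 0.8% NP40 and benzonase (60 min, 4 °C) and ultracentrifuged, and the supernatant was TMT-labelled for LC-MS/MS. Intensities were vsn-normalised, and the value is the fold change against the NP40-processed vehicle per replicate, from three independent experiments.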

Target	NP40-soluble protein abundance (concentration: 1mM)	NP40-soluble protein abundance (concentration: 2mM)	NP40-soluble protein abundance (concentration: 4mM)	NP40-soluble protein abundance (concentration: 6mM)	NP40-soluble protein abundance (concentration: 8mM)	NP40-soluble protein abundance (concentration: 10mM)
A0A087WYY4|O75386 and related entries (UniProt O75386)	0.997 ± 0.01	0.985 ± 0.049	1.01 ± 0.026	1.03 ± 0.033	1.03 ± 0.027	1.04 ± 0.022
A0A0C4DFY0|Q14242 and related entries (UniProt Q14242)	0.973 ± 0.046	0.985 ± 0.06	0.965 ± 0.045	0.958 ± 0.055	0.9452 ± 0.0083	0.923 ± 0.044
A0A0A0MRR7|P09234 (UniProt P09234)	0.967 ± 0.04	1.01 ± 0.011	0.966 ± 0.03	1.05 ± 0.058	1.03 ± 0.051	1.09 ± 0.066
A0A0A0MTR2|Q8N543 (UniProt Q8N543)	1.01 ± 0.017	0.975 ± 0.072	1.01 ± 0.057	0.967 ± 0.031	0.963 ± 0.037	0.946 ± 0.058
A2A274 and related entries (UniProt Q99798)	1.012 ± 0.009	0.982 ± 0.029	1.01 ± 0.03	0.966 ± 0.018	0.987 ± 0.035	0.94 ± 0.019
A0A0D9SEY1|E7ESS2 and related entries (UniProt O95819)	1.04 ± 0.046	1.05 ± 0.046	1.05 ± 0.058	1.01 ± 0.026	1.03 ± 0.059	1.05 ± 0.038
A0A0G2JLB3|A0A0G2JNZ0|A0A0G2JNZ5|P04062 and related entries (UniProt P04062)	0.967 ± 0.01	0.98 ± 0.02	0.988 ± 0.062	0.999 ± 0.027	0.972 ± 0.021	0.998 ± 0.045
A0A0C4DG17|C9J9K3 and related entries (UniProt P08865)	1.03 ± 0.05	0.968 ± 0.042	0.975 ± 0.039	0.947 ± 0.04	0.941 ± 0.05	0.952 ± 0.057
A0A087WYS9|Q15526 and related entries (UniProt Q15526)	1.03 ± 0.051	0.995 ± 0.092	1.03 ± 0.072	1.01 ± 0.032	1.01 ± 0.029	0.991 ± 0.041
A0A0J9YW33|Q13277 and related entries (UniProt Q13277)	1.02 ± 0.022	1.04 ± 0.03	1.05 ± 0.011	1.05 ± 0.031	1.06 ± 0.023	1.06 ± 0.023
A0A0G2JLR5|A0A0G2JMW4|Q02833 and related entries (UniProt Q02833)	1.02 ± 0.032	1.03 ± 0.019	0.988 ± 0.025	0.996 ± 0.017	1.01 ± 0.017	1.01 ± 0.036
UniProt A0MZ66 and related entries	1.03 ± 0.033	1.09 ± 0.065	1.03 ± 0.046	0.987 ± 0.01	0.968 ± 0.033	0.979 ± 0.05
A0A087X2I1|P62333 (UniProt P62333)	0.913 ± 0.05	0.853 ± 0.068	0.895 ± 0.1	0.899 ± 0.069	0.905 ± 0.079	0.895 ± 0.12
A0A0A0MTD1|E7EPX0 and related entries (UniProt Q9NUL3)	1.07 ± 0.024	1.12 ± 0.071	1.13 ± 0.032	1.15 ± 0.037	1.161 ± 0.006	1.22 ± 0.051
A0A0A0MSE9|B7WPA5 and related entries (UniProt Q96CS7)	0.9883 ± 0.0098	1.01 ± 0.018	0.991 ± 0.026	0.9909 ± 0.0033	1.01 ± 0.015	0.974 ± 0.013
A0A0A0MSK6|Q13017 and related entries (UniProt Q13017)	1.03 ± 0.037	1.03 ± 0.055	1.03 ± 0.065	1.02 ± 0.069	0.98 ± 0.087	1.02 ± 0.14
A0A0A0MT23|A0A0A0MST9 (UniProt P27448)	1.07 ± 0.017	1.13 ± 0.073	1.15 ± 0.082	1.12 ± 0.035	1.14 ± 0.041	1.16 ± 0.012
A0A0D9SF44|A0A0R4J2E2|Q9Y3T6 (UniProt Q9Y3T6)	1.01 ± 0.042	1.01 ± 0.034	0.996 ± 0.035	1.05 ± 0.036	1.03 ± 0.063	1.04 ± 0.047
A0A0A0MSY7|E5KNQ5 and related entries (UniProt O00142)	0.983 ± 0.057	1.01 ± 0.097	0.988 ± 0.06	0.978 ± 0.013	1 ± 0.011	0.985 ± 0.035
A0A0A0MQR1|Q9Y4K4 (UniProt Q9Y4K4)	0.985 ± 0.025	0.993 ± 0.04	1 ± 0.02	0.981 ± 0.024	0.964 ± 0.024	0.97 ± 0.019
A0A0A0MSS3|Q5T6P1 and related entries (UniProt Q8ND83)	1.06 ± 0.016	1.05 ± 0.091	1.038 ± 0.0018	1.04 ± 0.017	1.05 ± 0.021	1.05 ± 0.056
A0A087WWM4|F8WAN9 and related entries (UniProt Q9P2T1)	1.01 ± 0.016	1.03 ± 0.028	1.02 ± 0.013	1.07 ± 0.029	1.07 ± 0.033	1.09 ± 0.015
A0A0D9SF28|F5GXV7 and related entries (UniProt Q8NFP9)	0.985 ± 0.023	0.958 ± 0.082	0.984 ± 0.083	0.983 ± 0.071	0.976 ± 0.057	0.976 ± 0.062
A0A0A0MQS2|F5H0Q6 (UniProt Q8N2M8)	1.06 ± 0.049	1.13 ± 0.083	1.04 ± 0.064	1.06 ± 0.1	1.04 ± 0.043	1.06 ± 0.015
A0A087X0M1|H0YAA8 and related entries (UniProt Q9H204)	0.954 ± 0.048	1.01 ± 0.079	0.945 ± 0.03	0.932 ± 0.061	0.887 ± 0.073	0.919 ± 0.032
A0A087X112|Q9H9A7 (UniProt Q9H9A7)	0.996 ± 0.025	0.994 ± 0.024	1.02 ± 0.035	1.01 ± 0.033	1.02 ± 0.025	1.04 ± 0.02
A0A0C4DGS1|P39656 (UniProt P39656)	0.945 ± 0.034	0.833 ± 0.11	0.954 ± 0.059	0.927 ± 0.024	0.959 ± 0.025	0.885 ± 0.061
A0A140TA86|Q5XKP0 (UniProt Q5XKP0)	0.9908 ± 0.0084	0.971 ± 0.021	0.9312 ± 0.0053	0.968 ± 0.021	0.951 ± 0.019	0.9451 ± 0.0032
A0A0A0MTJ9|A0A0R4J2G3|Q6PIU2 and related entries (UniProt Q6PIU2)	1 ± 0.028	1.02 ± 0.032	0.999 ± 0.018	0.987 ± 0.013	0.979 ± 0.022	1.01 ± 0.019

Random excerpt: two records from the list.
Target	NP40-soluble protein abundance (concentration: 1mM)	NP40-soluble protein abundance (concentration: 2mM)	NP40-soluble protein abundance (concentration: 4mM)	NP40-soluble protein abundance (concentration: 6mM)	NP40-soluble protein abundance (concentration: 8mM)	NP40-soluble protein abundance (concentration: 10mM)
A0A0A0MQS2|F5H0Q6 (UniProt Q8N2M8)	1.06 ± 0.049	1.13 ± 0.083	1.04 ± 0.064	1.06 ± 0.1	1.04 ± 0.043	1.06 ± 0.015
A0A087WWM4|F8WAN9 and related entries (UniProt Q9P2T1)	1.01 ± 0.016	1.03 ± 0.028	1.02 ± 0.013	1.07 ± 0.029	1.07 ± 0.033	1.09 ± 0.015
